One substance from publication PMC9569550 can be followed below.

Amino acid sequences for entries named in this document (tags omitted).
UniProt Q9NPA3: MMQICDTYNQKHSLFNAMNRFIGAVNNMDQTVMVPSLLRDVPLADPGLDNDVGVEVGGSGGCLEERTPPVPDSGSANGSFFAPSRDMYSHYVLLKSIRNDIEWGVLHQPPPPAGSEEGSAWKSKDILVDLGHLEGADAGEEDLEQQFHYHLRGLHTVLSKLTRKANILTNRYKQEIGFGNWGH
UniProt P01106: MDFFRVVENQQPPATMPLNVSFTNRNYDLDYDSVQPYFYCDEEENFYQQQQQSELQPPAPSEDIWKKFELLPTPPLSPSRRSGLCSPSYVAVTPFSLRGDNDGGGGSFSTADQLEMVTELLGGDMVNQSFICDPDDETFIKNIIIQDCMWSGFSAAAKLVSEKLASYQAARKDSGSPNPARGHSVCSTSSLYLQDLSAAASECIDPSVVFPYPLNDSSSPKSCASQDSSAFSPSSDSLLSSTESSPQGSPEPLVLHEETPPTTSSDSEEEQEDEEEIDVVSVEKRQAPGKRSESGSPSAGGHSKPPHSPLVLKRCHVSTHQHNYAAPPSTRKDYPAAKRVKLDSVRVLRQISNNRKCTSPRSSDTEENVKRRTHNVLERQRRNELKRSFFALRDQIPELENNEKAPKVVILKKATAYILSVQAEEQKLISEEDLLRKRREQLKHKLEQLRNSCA

Results are given in words; binding and its absence hold for the method and conditions named. In cells and extracts the contact can be indirect. Some entries that bind do so weakly or less than the wild type.

The assay addresses midline1 interacting protein 1 (MID1IP1) (human (endogenous in HCT116)) (UniProt Q9NPA3). The experiment in a line: co-IP; lysates of HCT116 p53+/+ cells, untreated or treated with TA3 for 24 h; incubated overnight with MID1IP1 antibody, Protein A or G beads at 4 °C for 5 h, washed three times with lysis buffer, Western blot. (In general: A western blot detects proteins with antibodies after separation by electrophoresis.)

For c-Myc (from UniProt P01106 1-454), the binding result is listed as “binds”.
